# Measurements taken from PubChem BioAssay AID602313 (National Center for Advancing Translational Sciences (NCATS), 2012).
# Screen size: about 390,000 compounds; about 760 (0.19%) were called active. Inconclusive results, whose numbers are uncertain, are shown with a selection of clear calls. The call rests on the fitted dose curve; in most records, active means well fitted inhibition curve with a large enough effect; inconclusive means small, poorly fitted or top-dose-only effect; inactive means flat fitted curve, though single readings scatter. Potencies beside an inconclusive call are fits to weak or partial responses and may not hold up.
# Assay: qHTS for Inhibitors of Vif-A3F Interactions: qHTS; further: nearly all actives have a fitted effect of over 65% in size
# Settings: HeLa A3F-eYFP + Vif (tagged APOBEC3F with the HIV-1 protein that degrades it), YFP fluorescence increase; series mostly up to 46.1 µM
# Outline: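 Fluorescence increase (Ex 488/Em 500-530) after overnight compound treatment at 37 deg C flags inhibition of Vif-driven A3F-eYFP loss in stable HeLa A3F-eYFP/Vif cells seeded overnight beforehand.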
# Potency means the concentration at half of the fitted maximal effect.
row,Structure (SMILES),Potency
1,O=C(Cn1nc(-c2ccccc2Cl)ccc1=O)Nc1ccc(Br)cc1,"inconclusive: 2.82 µM [inhibitor, partial curve, poor fit]"
2,CC(C)(C)OC(=O)N1CCC[C@H]1C(=O)NCc1ccc(Cl)cc1Cl,"inconclusive: 0.562 µM [inhibitor, full curve, poor fit]"
3,O=C(/C=C/Nc1ccc(F)c(Cl)c1)c1ccccc1,"inconclusive: 25.1 µM [inhibitor, single point]"
4,O=C(NC(=S)Nc1ccccc1O)c1ccc(-c2ccc(Cl)cc2)o1,inactive
5,NC(=S)N=Nc1c(O)n(Cc2ccc(F)cc2)c2ccccc12,"inconclusive: 6.31 µM [inhibitor, single point]"
6,CC1CCCC(C)N1CC(O)COc1c(F)cc(Br)cc1F (stereo not drawn),"inconclusive: 35.5 µM [inhibitor, single point]"
7,CCC1C/C(=C\c2cc(OC)c(OC)cc2OC)C(=O)/C(=C/c2cc(OC)c(OC)cc2OC)C1 (stereo not drawn),"inconclusive: 20 µM [inhibitor, partial curve, poor fit]"
8,Cc1ccc2c(c1)c1c(n2CC(O)Cn2nc(C)c(Br)c2C)CCCC1 (stereo not drawn),"inconclusive: 35.5 µM [inhibitor, single point]"
9,COc1ccc(-c2cnnc(N/N=C/c3ccc(O)c(O)c3)n2)cc1,inactive
10,COc1ccc(/C=N/N(C)C2=NS(=O)(=O)c3ccccc32)cc1OC,"inconclusive: 35.5 µM [inhibitor, single point]"
11,CCN1c2ccccc2N(C)C1(C)c1ccccc1 (stereo not drawn),"inconclusive: 17.8 µM [inhibitor, partial curve, poor fit]"
12,C#CCOCCOCCOCCNc1nc(N2CCN(C(=O)CCCCCCCCCCNC(=O)Cn3cc(C[C@@H](C)O)nn3)CC2)nc(N2CCN(C(=O)CCCCCCCCCCNC(=O)[C@H](CCCN=C(N)N)n3cc(C[C@@H](C)CC)nn3)CC2)n1,inactive
13,Cc1ccc(/C(C#N)=C\c2ccc(N3CCOCC3)o2)cc1,"inconclusive: 31.6 µM [inhibitor, single point]"
14,COc1ccc(C(=O)/C=C/c2cc(OC)c(O)c(OC)c2)c(F)c1,"inconclusive: 20 µM [inhibitor, single point]"
15,C/C(=N\NC(=S)NCc1ccccc1)c1ccc(Cl)s1,"inconclusive: 5.62 µM [inhibitor, single point]"
16,O=C(Nc1ccc2oc(-c3cc(Br)ccc3Cl)nc2c1)c1ccc2ccccc2c1,"inconclusive: 7.08 µM [inhibitor, full curve]"
17,COc1ccc(CN2CCNC(=O)C2CC(=O)NCc2ccc(C)s2)c(OC)c1 (stereo not drawn),"inconclusive: 6.31 µM [inhibitor, single point]"
18,CCCc1nc2ccccc2c(=O)n1CC(=O)c1ccccc1,"inconclusive: 5.62 µM [inhibitor, single point]"
19,COc1cc(OC)cc(C(=O)Nc2nc(-c3nnn(-c4ccc(F)c(Cl)c4)c3C)ns2)c1,"inconclusive: 8.91 µM [inhibitor, partial curve]"
20,COc1ccc(C(CNC(=O)CCNS(=O)(=O)c2ccc(C)cc2)N2CCOCC2)cc1 (stereo not drawn),"inconclusive: 5.62 µM [inhibitor, partial curve]"
21,O=C(Nc1ccccn1)c1cccc(S(=O)(=O)N2CCCC2)c1,inactive
22,CCOc1cc(/C=C(/C#N)C(=O)Nc2ccc(OC)cc2)ccc1OCc1ccc(C(=O)O)cc1,"inconclusive: 22.4 µM [inhibitor, single point]"
23,O=C(CCNC(=O)c1ccco1)Nc1cccc(Br)c1,"inconclusive: 35.5 µM [inhibitor, partial curve, poor fit]"

# Part of the list above in order of heavy-atom count, rising.
row,Structure (SMILES),Potency
3,O=C(/C=C/Nc1ccc(F)c(Cl)c1)c1ccccc1,"inconclusive: 25.1 µM [inhibitor, single point]"
15,C/C(=N\NC(=S)NCc1ccccc1)c1ccc(Cl)s1,"inconclusive: 5.62 µM [inhibitor, single point]"
13,Cc1ccc(/C(C#N)=C\c2ccc(N3CCOCC3)o2)cc1,"inconclusive: 31.6 µM [inhibitor, single point]"
5,NC(=S)N=Nc1c(O)n(Cc2ccc(F)cc2)c2ccccc12,"inconclusive: 6.31 µM [inhibitor, single point]"
14,COc1ccc(C(=O)/C=C/c2cc(OC)c(O)c(OC)c2)c(F)c1,"inconclusive: 20 µM [inhibitor, single point]"
9,COc1ccc(-c2cnnc(N/N=C/c3ccc(O)c(O)c3)n2)cc1,inactive
8,Cc1ccc2c(c1)c1c(n2CC(O)Cn2nc(C)c(Br)c2C)CCCC1 (stereo not drawn),"inconclusive: 35.5 µM [inhibitor, single point]"
17,COc1ccc(CN2CCNC(=O)C2CC(=O)NCc2ccc(C)s2)c(OC)c1 (stereo not drawn),"inconclusive: 6.31 µM [inhibitor, single point]"
16,O=C(Nc1ccc2oc(-c3cc(Br)ccc3Cl)nc2c1)c1ccc2ccccc2c1,"inconclusive: 7.08 µM [inhibitor, full curve]"
19,COc1cc(OC)cc(C(=O)Nc2nc(-c3nnn(-c4ccc(F)c(Cl)c4)c3C)ns2)c1,"inconclusive: 8.91 µM [inhibitor, partial curve]"
7,CCC1C/C(=C\c2cc(OC)c(OC)cc2OC)C(=O)/C(=C/c2cc(OC)c(OC)cc2OC)C1 (stereo not drawn),"inconclusive: 20 µM [inhibitor, partial curve, poor fit]"
12,C#CCOCCOCCOCCNc1nc(N2CCN(C(=O)CCCCCCCCCCNC(=O)Cn3cc(C[C@@H](C)O)nn3)CC2)nc(N2CCN(C(=O)CCCCCCCCCCNC(=O)[C@H](CCCN=C(N)N)n3cc(C[C@@H](C)CC)nn3)CC2)n1,inactive

# The listing continues:

row,Structure (SMILES),Potency
1,COc1ccccc1N1CCNC(C)C1=O (stereo not drawn),inactive
2,CCCCN(CC)CCNC(=O)c1cc2c(=O)n(C)c3ccccc3c2s1,"inconclusive: 35.5 µM [inhibitor, single point]"
3,COc1cc(/C=C/C(=O)OCC(=O)N(CC(C)C)c2c(N)n(Cc3ccccc3)c(=O)[nH]c2=O)ccc1O,"inconclusive: 11.2 µM [inhibitor, partial curve, poor fit]"
4,Cc1ccc(N2CCN(C(=O)c3c(C)oc4nc(C)nc(N5CCCC5)c34)CC2)c(C)c1,inactive
5,CC1(C)CC(N2CCCC2)=CC(=[N+]2CCCC2)C1,inactive
6,COc1ccc(NC(=O)c2sc3nc4c(cc3c2N)CCCCCC4)cc1Cl,"inconclusive: 20 µM [inhibitor, single point]"
7,CN1CCc2c(sc(NC(=O)c3ccc(S(=O)(=O)N4CCCC4)cc3)c2C(N)=O)C1,inactive
8,Cc1ccc(N2C3=C(C(=O)CC(C)(C)C3)C(c3cn(C)nc3C)C3=C2CC(C)(C)CC3=O)cc1,"inconclusive: 35.5 µM [inhibitor, single point]"
9,CCN(c1ccccc1)S(=O)(=O)c1c(C)noc1C,"inconclusive: 2.51 µM [inhibitor, partial curve, poor fit]"
10,Cc1cc(NS(=O)(=O)c2ccc(NC(=S)NC(=O)c3ccc(F)cc3)cc2)no1,inactive
11,CSC1=NSC2=NC(=O)/C(=C/c3coc4ccccc4c3=O)C(=N)N12,"inconclusive: 25.1 µM [inhibitor, single point]"
12,COc1cc(Br)cc(/C=N/NC(=O)Cc2ccc(C(F)(F)F)cc2[N+](=O)[O-])c1O,"inconclusive: 1.41 µM [inhibitor, full curve, poor fit]"
13,COc1cc(/C=C(\C#N)C(=O)c2ccc(O)c(O)c2)cc(I)c1O,"inconclusive: 22.4 µM [inhibitor, single point]"
14,O=C(COc1ccc(Cl)cc1Cl)N/N=C/c1ccc[nH]1,"inconclusive: 35.5 µM [inhibitor, single point]"
15,CCO[C@H]1OC(C(=O)NC2CC2)=C[C@@H](c2ccccc2)[C@@H]1CCCO,inactive
16,COc1ccc(S(=O)(=O)N2CCC(c3nnc(-c4ccccc4C)o3)CC2)c(OC)c1,"inconclusive: 11.2 µM [inhibitor, partial curve, poor fit]"
17,O=C(O)CCNc1cc(N2CCN(C(=O)c3ccco3)CC2)c2noc3c2c1C(=O)c1ccccc1-3,"inconclusive: 25.1 µM [inhibitor, single point]"
18,COc1cccc(C2CN(c3ccc(F)cc3F)N=C2c2cccs2)c1OC (stereo not drawn),inactive
19,Cc1ccccc1Cn1c(=N)n(CC(=O)c2ccc([N+](=O)[O-])cc2)c2ccccc21,active: 28.2 µM
20,O=C(N/N=C/c1cccc(C(F)(F)F)c1)c1ccc(O)cc1,inactive
21,CCc1ccc(Nc2nc(N3CCOCC3)nc(N3CCOCC3)n2)cc1,inactive
22,Cc1cccc(N(Cc2ccc(Cl)cc2)S(C)(=O)=O)c1,"inconclusive: 22.4 µM [inhibitor, single point]"
23,O=C(CC(c1cccs1)N1Cc2ccccc2C1=O)Nc1ccccc1 (stereo not drawn),inactive

row,Structure (SMILES),Potency
1,O=c1cc2nc(-c3ccccc3)nc(SCc3cccc(Br)c3)n2[nH]1,"inconclusive: 7.08 µM [inhibitor, partial curve, poor fit]"
2,COCCn1c(C)cc(C(=O)CN2CCCCC2)c1C,"inconclusive: 3.55 µM [inhibitor, single point]"
3,CC1CC(C)(C)NC2(CCCC2)N1 (stereo not drawn),"inconclusive: 35.5 µM [inhibitor, single point]"
4,Cc1ccc(C(=O)N/C(=C\c2ccc(-c3ccccc3[N+](=O)[O-])o2)C(=O)NCCCN2CCOCC2)cc1,inactive
5,CCOc1cc(/C=C2\C(=N)N3N=C(C)SC3=NC2=O)ccc1OCCOc1cccc(OC)c1,"inconclusive: 20 µM [inhibitor, single point]"
6,COCCNC(=S)NN=C1CCCCCC1,"inconclusive: 6.31 µM [inhibitor, full curve]"
7,CC(C)n1c(O)c(N=Nc2ccccn2)c2ccccc21,"inconclusive: 3.16 µM [inhibitor, partial curve, poor fit]"
8,COc1ccc(OC)c(CCNC(=O)CCc2nnc3ccc(N4CCCCC4)nn23)c1,inactive
9,CCNC(=O)c1c(NC(=O)c2cc(=O)c3ccc(C)c(C)c3o2)sc2c1CCCC2,inactive
10,Cc1ccc(OCCCC(=O)N(C)CC(=O)Nc2ccccc2Br)cc1,"inconclusive: 35.5 µM [inhibitor, single point]"
11,Nc1sc(-c2ccccc2)n[n+]1Cc1cccc2cccnc12,"inconclusive: 35.5 µM [inhibitor, single point]"
12,S=c1[nH]nc(Nc2ccccc2Cl)s1,inactive
13,CCc1ccc(-n2c(Cc3ccccc3)n[nH]c2=S)cc1,"inconclusive: 20 µM [inhibitor, single point]"
14,Cc1ccc(C)c(NC(=O)COC(=O)Cn2c(C)csc2=O)c1,"inconclusive: 6.31 µM [inhibitor, single point]"
15,COc1ccccc1/C=N/NC(=S)NCc1ccco1,"inconclusive: 35.5 µM [inhibitor, single point]"
16,Nc1nc(Br)c2ccccc2c1-c1ccccc1,inactive
17,Cc1cc2c(cc1S(=O)(=O)N1CCc3ccccc31)NC(=O)CO2,inactive
18,Cc1cccc(N2C(=O)CSC23C(=O)N(CC(=O)NCCc2ccccc2)c2ccccc23)c1 (stereo not drawn),inactive
19,CS(=O)(=O)c1ccccc1C(=O)Nc1ccc(-c2nc3ccccc3[nH]2)cc1,inactive
20,C=CCNc1sc(C(=O)c2cccs2)c(N)c1C#N,"inconclusive: 25.1 µM [inhibitor, single point]"
21,COc1ccc(C(CCNCc2ccc(OC)c(OC)c2)c2ccc(F)cc2)cc1 (stereo not drawn),"inconclusive: 6.31 µM [inhibitor, single point]"
22,O=C(NC(=S)N1CCOCC1)c1cn(-c2ccccc2)nc1-c1ccccc1,"inconclusive: 25.1 µM [inhibitor, single point]"

# Three entries from above, ordered by heavy-atom count, largest number first:
row,Structure (SMILES),Potency
4,Cc1ccc(C(=O)N/C(=C\c2ccc(-c3ccccc3[N+](=O)[O-])o2)C(=O)NCCCN2CCOCC2)cc1,inactive
17,O=C(O)CCNc1cc(N2CCN(C(=O)c3ccco3)CC2)c2noc3c2c1C(=O)c1ccccc1-3,"inconclusive: 25.1 µM [inhibitor, single point]"
14,Cc1ccc(C)c(NC(=O)COC(=O)Cn2c(C)csc2=O)c1,"inconclusive: 6.31 µM [inhibitor, single point]"
